Laboratory results reported in publication PMC1308830.
For at least one entry, the source does not settle the construct or the ends of the probe. Where cells or extracts were used, other partners may take part. For part of these data: Negatives hold for the conditions tested. For part of these data: Where a protein sequence is shown, tags need not be part of it.

Sequences of proteins named here, by UniProt entry; tags and fusion partners are left off.
UniProt Q7TQN4, whole entry: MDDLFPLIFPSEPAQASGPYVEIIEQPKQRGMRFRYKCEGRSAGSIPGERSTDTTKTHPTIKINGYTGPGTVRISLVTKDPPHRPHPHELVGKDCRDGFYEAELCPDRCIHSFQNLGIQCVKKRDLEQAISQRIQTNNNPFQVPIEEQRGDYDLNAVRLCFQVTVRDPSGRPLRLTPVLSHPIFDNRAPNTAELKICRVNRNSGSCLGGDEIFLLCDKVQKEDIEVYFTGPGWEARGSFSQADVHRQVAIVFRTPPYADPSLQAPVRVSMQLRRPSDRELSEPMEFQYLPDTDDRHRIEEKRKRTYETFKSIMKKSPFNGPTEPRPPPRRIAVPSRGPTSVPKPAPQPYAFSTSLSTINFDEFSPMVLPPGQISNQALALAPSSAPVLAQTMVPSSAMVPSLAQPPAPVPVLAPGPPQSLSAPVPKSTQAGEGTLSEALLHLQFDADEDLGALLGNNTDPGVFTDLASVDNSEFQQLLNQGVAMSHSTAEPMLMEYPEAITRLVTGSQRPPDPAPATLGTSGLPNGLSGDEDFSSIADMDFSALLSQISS

What was measured:
[1] = target: T1, NF-kB p50 (rat (primary hepatic stellate cells)) (UniProt Q63369); assay: EMSA; conditions: p50/p50 homodimer, CCN2-treated HSC; 20 ul, 6 ug nuclear extract (8 ug for supershift), 1 ug poly dI:dC, 0.2 ng 32P probe, 4 C 30 min; 4% native PAGE (8% for supershift); salt and pH not stated; protein in an extract; label: 32P end label
T1 sequence (looked up, limits assumed): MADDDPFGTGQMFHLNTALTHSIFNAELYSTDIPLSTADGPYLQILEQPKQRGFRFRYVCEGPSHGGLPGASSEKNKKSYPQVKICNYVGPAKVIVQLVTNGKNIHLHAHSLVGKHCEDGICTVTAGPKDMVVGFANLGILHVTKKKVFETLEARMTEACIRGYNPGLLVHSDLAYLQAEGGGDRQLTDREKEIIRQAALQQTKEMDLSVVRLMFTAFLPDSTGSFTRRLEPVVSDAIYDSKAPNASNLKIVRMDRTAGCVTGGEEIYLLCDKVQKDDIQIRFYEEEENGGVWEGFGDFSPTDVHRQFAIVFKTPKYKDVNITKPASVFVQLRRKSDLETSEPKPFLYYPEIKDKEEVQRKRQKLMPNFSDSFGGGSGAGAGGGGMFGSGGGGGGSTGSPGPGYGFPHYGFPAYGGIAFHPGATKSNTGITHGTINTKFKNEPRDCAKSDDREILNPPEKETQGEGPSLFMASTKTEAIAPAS

[2] = target: NF-kB p65 (RelA) (rat (primary hepatic stellate cells)) (UniProt Q7TQN4); assay: EMSA; conditions: p65/p65 homodimer, CCN2-treated HSC; 20 ul, 6 ug nuclear extract (8 ug for supershift), 1 ug poly dI:dC, 0.2 ng 32P probe, 4 C 30 min; 4% native PAGE (8% for supershift); salt and pH not stated; protein in an extract; label: 32P end label
[3] = tested on: NF-kB p65 (RelA) + NF-kB p50; assay: EMSA; conditions: p65/p50 heterodimer, CCN2-treated HSC; 20 ul, 6 ug nuclear extract (8 ug for supershift), 1 ug poly dI:dC, 0.2 ng 32P probe, 4 C 30 min; 4% native PAGE (8% for supershift); salt and pH not stated; protein in an extract; label: 32P end label
[4] = target: T1, NF-kB p50 (rat (primary hepatic stellate cells)); assay: EMSA supershift; conditions: p50/p50 homodimer, CCN2-treated HSC, anti-p65 plus anti-p50 removes all three bands, anti-p65 only the top two; 20 ul, 6 ug nuclear extract (8 ug for supershift), 1 ug poly dI:dC, 0.2 ng 32P probe, 4 C 30 min; 4% native PAGE (8% for supershift); salt and pH not stated; protein in an extract; label: 32P end label
[5] = target: NF-kB p65 (RelA) (rat (primary hepatic stellate cells)) (UniProt Q7TQN4); assay: EMSA supershift; conditions: p65/p65 homodimer, CCN2-treated HSC, anti-p65; 20 ul, 6 ug nuclear extract (8 ug for supershift), 1 ug poly dI:dC, 0.2 ng 32P probe, 4 C 30 min; 4% native PAGE (8% for supershift); salt and pH not stated; protein in an extract; label: 32P end label
[6] = tested on: NF-kB p65 (RelA) + NF-kB p50; assay: EMSA supershift; conditions: p65/p50 heterodimer, CCN2-treated HSC, anti-p65 and anti-p50; 20 ul, 6 ug nuclear extract (8 ug for supershift), 1 ug poly dI:dC, 0.2 ng 32P probe, 4 C 30 min; 4% native PAGE (8% for supershift); salt and pH not stated; protein in an extract; label: 32P end label

Sequence | binding result [1] | binding result [2] | binding result [3] | binding result [4] | binding result [5] | binding result [6]
TGAGGCGACTTTCCCAGG (double strand) [p50/p65 mutant oligonucleotide] | no binding | no binding | no binding |  |  | 
TGAGGGGACTTTCCCAGG (double strand) [wild type NF-kB oligonucleotide (NF-kB/CBF1 sites)] |  |  |  | binds | binds | binds
TGAGGGGACTTCCCGAGG (double strand) [CBF1-mutant oligonucleotide] | binds | binds | binds |  |  | 
